In publication doi:10.1101/2020.05.20.107664:
Numbering of substitutions follows the chain as printed. No constants are given. Whether binding was seen depends on the method and setting. Binding seen in cells or lysates may run through a third protein. A result given as binding can be weak or reduced; the word gives no strength. Sequences can lack the tags named with a protein.

What was measured:
[1] = target: T1, wild-type α-COP (α-COP-FLAG), stably expressed in MEFs (mouse) (UniProt Q8CIE6); test: co-IP
T1 sequence: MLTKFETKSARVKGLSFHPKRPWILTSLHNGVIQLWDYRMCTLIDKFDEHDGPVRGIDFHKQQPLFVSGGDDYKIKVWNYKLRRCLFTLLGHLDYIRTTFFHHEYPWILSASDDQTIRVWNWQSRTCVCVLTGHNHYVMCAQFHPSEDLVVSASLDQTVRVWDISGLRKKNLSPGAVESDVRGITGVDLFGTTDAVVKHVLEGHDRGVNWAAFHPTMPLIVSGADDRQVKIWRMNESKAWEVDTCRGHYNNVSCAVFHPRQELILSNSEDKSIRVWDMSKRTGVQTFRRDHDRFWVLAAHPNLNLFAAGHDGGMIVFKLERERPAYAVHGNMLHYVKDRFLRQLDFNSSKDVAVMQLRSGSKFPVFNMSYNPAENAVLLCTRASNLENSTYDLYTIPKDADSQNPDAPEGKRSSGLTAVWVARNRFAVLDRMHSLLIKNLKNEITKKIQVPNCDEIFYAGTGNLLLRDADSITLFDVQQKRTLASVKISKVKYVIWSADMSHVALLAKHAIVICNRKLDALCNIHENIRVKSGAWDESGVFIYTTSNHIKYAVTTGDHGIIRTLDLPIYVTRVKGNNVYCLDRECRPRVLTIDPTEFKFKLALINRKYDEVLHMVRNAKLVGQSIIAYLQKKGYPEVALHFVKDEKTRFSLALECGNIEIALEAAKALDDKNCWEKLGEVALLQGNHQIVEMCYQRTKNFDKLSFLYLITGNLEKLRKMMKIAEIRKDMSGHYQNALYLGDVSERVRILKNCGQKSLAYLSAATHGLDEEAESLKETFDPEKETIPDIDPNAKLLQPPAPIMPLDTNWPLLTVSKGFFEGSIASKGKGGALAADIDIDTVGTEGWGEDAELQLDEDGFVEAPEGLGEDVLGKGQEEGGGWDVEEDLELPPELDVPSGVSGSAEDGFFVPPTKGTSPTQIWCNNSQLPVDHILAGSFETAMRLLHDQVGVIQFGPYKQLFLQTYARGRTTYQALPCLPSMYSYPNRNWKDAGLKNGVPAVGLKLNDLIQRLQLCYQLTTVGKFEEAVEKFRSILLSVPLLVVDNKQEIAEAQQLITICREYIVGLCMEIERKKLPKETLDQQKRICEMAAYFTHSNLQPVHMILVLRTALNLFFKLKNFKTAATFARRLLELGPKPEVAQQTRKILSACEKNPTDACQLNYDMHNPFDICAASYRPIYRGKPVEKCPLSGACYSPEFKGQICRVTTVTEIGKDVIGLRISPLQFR

[2] = target: T2, α-COP variant E241K (α-COP-FLAG), stably expressed in MEFs (mouse) (UniProt Q8CIE6); test: co-IP
T2 sequence: T1 sequence with E241K

EGFP-mouse STING, stably expressed in MEFs
binding [1]: binds
binding [2]: binds
